These are yes or no findings as the source states them, for the method shown. In cells and extracts the contact can be indirect. A result given as binding can be weak or reduced; the word gives no strength. Where a sequence is shown, tags or fusion partners need not be part of it.
T1: GFP-Cep57l1 (mouse) (UniProt Q8VDS7)
T1 sequence: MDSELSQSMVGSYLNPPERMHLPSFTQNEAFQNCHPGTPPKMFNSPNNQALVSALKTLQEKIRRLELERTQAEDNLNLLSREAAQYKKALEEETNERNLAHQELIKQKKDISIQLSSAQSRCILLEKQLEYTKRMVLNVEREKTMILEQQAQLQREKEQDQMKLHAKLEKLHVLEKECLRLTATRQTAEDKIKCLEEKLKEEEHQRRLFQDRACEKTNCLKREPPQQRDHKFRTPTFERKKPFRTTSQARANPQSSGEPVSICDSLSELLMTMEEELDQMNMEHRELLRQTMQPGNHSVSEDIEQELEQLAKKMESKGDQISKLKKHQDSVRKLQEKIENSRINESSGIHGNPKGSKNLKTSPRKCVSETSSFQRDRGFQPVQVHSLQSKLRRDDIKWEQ


Legend:
[1] = molecular target: T1, GFP-Cep57l1 (mouse); experiment: co-IP
[2] = molecular target: GFP-Cep57l1 N-terminus (mouse); experiment: co-IP

| Molecule | binding [1] | binding [2] |
| --- | --- | --- |
| Flag-Cep63 N-terminal centriole-binding region (domain or fragment) | binds | – |
| Flag-Cep63 (protein, UniProt Q3UPP8 1-700) MEALLEGIQNRGHSGGFLTSCEAELQELMKQIDIMVAHKKSEWEGQTHALETCLDIRDRELKALRSQLDMKHKEVGILHQQIEEHEKTKQEMAMEYKEELLKLQEELSRLKRSYEKLQKKQLREFRGNTKSFREDRSEIERLTGKIEEFRQKSLDWEKQRLIYQQQVSSLEAQRKALAEQSEIIQAQLANRKQKLESVELSSQSEIQHLNSKLERAKDTICANELEIERLNIRVNDLMGTNMTILQDHRQKEEKLRESEKLLEALQEEQKELKASLQSQETFILEAKMQEKLQTTLKAVGTQQSVERPLEDCQKERKYSSPGQGVLDNVLSQLDFSHSSEELLQAEVTRLEGSLESVSATCKQLSQELMEKYEELKRMEGHNNEYRTEIKKLKEQILQADQTYSSALEGMKMEISQLTRELHQRDITIASAKCSSSDMEKQLKAEMQKAEEKAVEHKEILSQLESLKLENHRLSETVMKLELGLHEAKEISLADLQENYIEALNKLVSENQQLQKDLMSTKSELEHATNMCKKKDGEIFNPAHSRAAGFKNAELKPIHGQHRHDGIKTEQYKTGHHSPRGQTLDSIDPVARGPSPLSSHISPGSSTVSLPSNFLFEAHSLPSVLDINDVNFSDSLSDCMNDQEEFVSSGSLPTSPLGSIATRFLEEEELRSHHILERLDAHIEELKRESEKTVRQFTALV | – | binds |
